Results: the supplement of paper PMC5949888
Most values lie at the floor of the assay. Slopes are relative: functional sequences can read slightly below zero.

System: Saccharomyces cerevisiae PS128 hsf1 delta, HSF1(1-493) fusion
Test: growth estimate (transactivation domain function in HSF1 fusion, heat-shock survival) (a.u. (slope of normalised read count over time)); higher = stronger growth at 37°C, i.e. more transactivation activity
Details: library: random library

Substance | growth estimate
GRAIRPLGTR | < -0.25
PPEHHAPAFLFIA | < -0.25
RQIRYYSVRQDQQGPAPTRF | < -0.25
EMRMVLCTAEVVN | -0.243
YSLLDRCPPCDQVPVAGARS | < -0.25
EGRGRRSGITRFVTER | < -0.25
VSGAVPR | -0.235
SGLNCALGSAYRPFLED | < -0.25
YPVRFRS | < -0.25
PYDM | < -0.25
LSVGSGV | < -0.25
MDEIFWFGESRVPLAAVQSG | < -0.25
GKPKFTDI | < -0.25
TSRIAREPRCGS | < -0.25
SPDPGGVPRRLASHYLVHAP | < -0.25
MNSSGLESGGPSVTSGMLRP | < -0.25
LDRLE | -0.13
DVNRSNFGNRRGLWPRTLSR | < -0.25
LVIQREQ | < -0.25
ARSLYDRLEIGSFKLKAWVG | < -0.25
LSPKNWNMRV | < -0.25
HPSLLERAVTALVQLWVVWI | < -0.25
GSGAGPSGLLDTHR | < -0.25

Four entries from above, with tabs.
Substance	growth estimate
SGLNCALGSAYRPFLED	< -0.25
YPVRFRS	< -0.25
PYDM	< -0.25
LSVGSGV	< -0.25

Additional records

Substance | growth estimate
VRQQMGKCLEPREILT | < -0.25
ATSRKGPTFFPSRGPRGYRA | < -0.25
CSLRGEKIG | < -0.25
LGVYTVLGERLTDRPYSTFG | < -0.25
GSSRDASQYRQRGARISPAS | < -0.25
FMPPNSKI | < -0.25
VKAEYRVILTRLLSDIESPK | < -0.25
PLNVSFRSGLPISGLLIGRS | < -0.25
TGVRLAARGYFGVRPGNKPG | < -0.25
IPDALMHQDWPLKSRSSQCD | < -0.25
WNPDHSGSTVKYTLSPQIRS | < -0.25
VEVATLASSQVSLYLYRRLP | < -0.25
RLTALG | < -0.25
WAIMGHFTCDNNRRG | < -0.25
CWIIYRLWLRLGISSTRPPP | < -0.25
SRMLAWQTDILPNKCCTRFC | < -0.25
NTWVSG | < -0.25
TLSCEVRPYG | < -0.25
PHEEAISASPQVARCMLAAE | < -0.25
RSGVGMFEIGVNKVFPGSAG | < -0.25
SWMG | < -0.25
STGQFFVGGTLTLASL | < -0.25
SREI | < -0.25

Substance | growth estimate
LGVMTAGSI | < -0.25
VPPFQIGTPN | < -0.25
AGKASFLVQEQPRRGACAEE | < -0.25
SGVL | < -0.25
LNRTMSWLVDTIRPFRN | < -0.25
VAKPERPHCLEY | < -0.25
SNVGRVYGSALRMIPEVWQT | < -0.25
AGSEWVSYINGVWGRMNFKF | < -0.25
GTGKCFFIGTDCETF | < -0.25
DVGGFTSLSVLMFFVAYFSS | < -0.25
YGQSPLTN | < -0.25
GSGSTA | < -0.25
LNALRLWPCACGGIPVPAVE | < -0.25
ICIICPSPGPDCHVSRRHLG | < -0.25
HLLRKVFLVEILNRSTVRMP | < -0.25
LRRPCTMAPSILDRFCHNIT | < -0.25
PGAGVASTGRIGTPASRGWP | < -0.25
GGAYSTR | < -0.25
GIVLPGQSAPAPVEFGNVSL | < -0.25
KFLWCK | 0.147
TGVQCGTSLGSA | < -0.25
NRLGGRSC | < -0.25
TYVLSCDHRS | < -0.25

Substance | growth estimate
APAPQRLLAGRQTSSASSE | < -0.25
AKWRGSPRHLDEDGGLEVKR | < -0.25
GEEKPALTSRDSRCGM | < -0.25
DVTDHQSRS | < -0.25
STGSIGSSSVSVNLPVPKYS | < -0.25
NWE | -0.0897
TNIRMALGARQE | < -0.25
RTLQAVRRGGSTGCSGQRVA | < -0.25
SRQIQTSKLRGSRRVKI | < -0.25
VNEPEDVSQICV | < -0.25
RGGGPVIRYRNRRKSQLVDL | < -0.25
PLRSKAKTPDTYKLIAELQP | < -0.25
SCHIPFTMALQKSGFPRVRE | < -0.25
TMPSPMFSLEVATKRSRGLF | < -0.25
VHPTGMTISPRWTTMGQLLT | < -0.25
CKSSRRWREQRV | < -0.25
IDELGTATVVWE | < -0.25
RDLGTSLRVMNVCPLRIPTG | < -0.25
PELCYYVVEPRTSYRTDSRA | < -0.25
VGFTHSACSSAVPYQSGYP | < -0.25
RPGKPVFMGGMT | < -0.25
AVEGFGANKPSFCAPSSSQG | < -0.25
LFVFRYRCCGVGVQEPSRGE | < -0.25

Substance | growth estimate
VSRFDRRYYFAGK | < -0.25
ESNLFTWIIRYSLKGKIPPF | < -0.25
YRVIWCHAGFRTLPRVNVVC | < -0.25
VSDLLALKGCWLTLYTQSPT | < -0.25
LVKELLQVNRGDRALQLLKA | < -0.25
GNMAWVWRLLHCRLRYRITC | < -0.25
HPSSGRTDYATTFFLEEYSV | -0.127
DGIRKGRVVDRGDLMLSTAL | < -0.25
SMCWARG | < -0.25
TSTGAIGAPVEFLVMINGGI | < -0.25
SVSTHSIPAACRLVLKVTKV | < -0.25
HIGLVLQELCPLGSSTKYMK | < -0.25
TRRRNF | < -0.25
HEELSLRAMTK | < -0.25
QTDQTPNLMPIIEDEWLHSR | < -0.25
NQGTLLYHGGPNCDNNIRTL | < -0.25
TFSGLHPYTSDEDPQKPCHN | < -0.25
SEAK | < -0.25
VTW | < -0.25
ICVKP | < -0.25
VRPRRIMPCKWTS | < -0.25
HTDCLCQKPGVSTYVDAGIC | < -0.25
LMTGSCG | < -0.25

Taken from above.
Value of DVGGFTSLSVLMFFVAYFSS under growth estimate: < -0.25
Value of HPSSGRTDYATTFFLEEYSV under growth estimate: -0.127
Value of AVEGFGANKPSFCAPSSSQG under growth estimate: < -0.25
Value of YGQSPLTN under growth estimate: < -0.25
Value of AGSEWVSYINGVWGRMNFKF under growth estimate: < -0.25
Value of SRQIQTSKLRGSRRVKI under growth estimate: < -0.25
Value of TFSGLHPYTSDEDPQKPCHN under growth estimate: < -0.25

Next entries.

Substance | growth estimate
SPRGSETNCIPNIVVGGSRR | < -0.25
MITQWHSRGPL | < -0.25
SWKLVGTRAGRRMCL | < -0.25
QYLSIPPRTDSMS | < -0.25
AVFLNCQYISNSLVVGNPQK | < -0.25
KKAHATNCPGRRSLTRRANA | -0.243
QVQPQMSTVAVVLVVATSHF | < -0.25
RPVRFDKGESQVGGASG | < -0.25
PGGSRPYDEIAERQKPARWL | < -0.25
LSL | < -0.25
SMYASLR | < -0.25
VLFSSSDLVWSTAQDKYLGI | -0.181
WTVSLRPRALPRVKSLVLMI | < -0.25
LLSGLRSELKGATASDIRFS | < -0.25
KETGR | < -0.25
SANAGKMYL | < -0.25
EALGLQRLKYTRKRLAPSIA | < -0.25
QCSMFLMDALQIAILYPAED | < -0.25
ERMVTQ | < -0.25
KLLGGVSNPDTHDTFSPGPM | < -0.25
SIVSKGAWSVMS | < -0.25
LSPS | < -0.25
RSTLFHPLRML | < -0.25

Substance | growth estimate
AKPTARANTRG | < -0.25
HMVSAGHLRCAASLNAISAD | < -0.25
FELGDAAQLIPT | < -0.25
SHSSRSW | < -0.25
VHVHGRQLSLITDSNNM | < -0.25
ASLCHACLDQPLAHDSLATL | < -0.25
KSDPIAGFINERLTSKSAVR | < -0.25
FESGDVQD | < -0.25
VCTFINQCNLQMTVRRKKTT | < -0.25
DRTRGRPTQLGFREVVQGTL | < -0.25
DGMHAAGTAAITAYTTGREM | < -0.25
VRACALYAAFWIIASSRTHC | < -0.25
ISCKLGCRFSL | < -0.25
SDVERSQIFSAKPDGQAPHC | < -0.25
PYRTYVVCDWLSRFESIQAS | < -0.25
CPHRPWKSERVENMSSFIPK | < -0.25
RIRSVH | < -0.25
GVTKRTGLNGSYPRGFPVWN | < -0.25
